Some of the results follow.
Tested on: SARS-CoV-2 3'-UTR RNA
Test: NMR binding call after quantification (hit when 2 of 3 NMR criteria are met) (binary (1 = binding, 0 = not binding)); higher = binding
Conditions: RNA concentration 10 µM; fragment concentration 200 µM; 293 K

Row | Compound | NMR binding call
1 | COc1ccc(C)cc1NC(=O)CN.Cl | 0
2 | COCc1nnc(N)s1 | 0
3 | C(#Cc1ccccc1)CN1CCCCC1 | 0
4 | Nc1ccc(S(=O)(=O)Nc2ccccn2)cc1 | 0
5 | COc1ccc(CNC(=O)CC#N)cc1 | 0
6 | OC1CN(C(c2ccccc2)c2ccccc2)C1 | 0
7 | CC1CC1C(=O)NCCc1ccc(Cl)cc1 (stereo not given) | 0
8 | O=C(COc1ccc(F)cc1)N1CCCC1 | 0
9 | CCNC(=O)c1c[nH]nn1 | 0
10 | OCC1CN(Cc2ccccc2)CCO1 (stereo not given) | 0
11 | CC(=O)NC(C)c1nnc2ccccn12 (stereo not given) | 0
12 | CN1CCN(C(=O)CO)CC1 | 0
13 | CCOC(=O)CN1CCS(=O)(=O)CC1 | 0
14 | NC(=O)c1ccc(NC(=O)c2cnccn2)cc1 | 0
15 | Cl.NC1CCCN(C(=O)CCC(F)(F)F)C1 (stereo not given) | 0
16 | O=c1[nH]cc(N2CCCCC2)c(=O)[nH]1 | 0
17 | Cn1nc(C(N)=O)c2ccccc21 | 0
18 | Cc1ccsc1CNC(C)(C)CO | 0
19 | CN(CC(=O)O)C(=O)c1ccc(F)cc1 | 0
20 | CNC(=O)c1nc2ccccc2c(=O)[nH]1 | 1

Row | Compound | NMR binding call
21 | CC(=O)NCCc1ccc(S(N)(=O)=O)cc1 | 0
22 | Cc1cccc(Nc2ncnc3c2cnn3C)c1 | 0
23 | COCC(=O)Nc1nc(-c2ccccc2)cs1 | 0
24 | Cc1ccc(OCC(=O)Nc2cc(C)on2)cc1 | 0
25 | CC(=O)N1CCC(NCCc2ccccc2)CC1 | 0
26 | Cc1ccccc1CNc1nnnn1C | 0
27 | CC(=O)N1CCC(c2c[nH]c3ccccc23)CC1 | 0
28 | Cc1sc2ncnc(N(C)C)c2c1C | 1
29 | CS(=O)(=O)NCCc1ccc(F)cc1 | 0
30 | CC(C)n1cc(C(=O)O)nn1 | 0
31 | CS(=O)(=O)Nc1ccc(CN)cc1.Cl | 0
32 | COc1ccccc1N1CCN(CC#N)CC1 | 0
33 | CN(C)Cc1nc(C2(N)CCCC2)no1 | 0
34 | Nc1cccc(OCc2ccccc2)c1 | 0
35 | COc1ccc(NCc2ccccc2O)cc1 | 0
36 | Oc1ccccc1CN1CCc2ccccc2C1 | 0
37 | CS(=O)(=O)NC1(C(=O)O)CCCCC1 | 0
38 | Oc1ncc(NCCc2ccccc2)c(O)n1 | 0
39 | c1csc(CNCc2ccncc2)c1 | 0
40 | CCc1nnc(NC(=O)C(F)(F)F)s1 | 0

Tested on: SARS-CoV-2 3_SL1 RNA
Test: as above
Conditions: RNA concentration 10 µM; fragment concentration 200 µM; 293 K

Row | Compound | NMR binding call
41 | COc1ccc(C)cc1NC(=O)CN.Cl | 0
42 | COCc1nnc(N)s1 | 0
43 | C(#Cc1ccccc1)CN1CCCCC1 | 0
44 | Nc1ccc(S(=O)(=O)Nc2ccccn2)cc1 | 0
45 | COc1ccc(CNC(=O)CC#N)cc1 | 0
46 | OC1CN(C(c2ccccc2)c2ccccc2)C1 | 0
47 | CC1CC1C(=O)NCCc1ccc(Cl)cc1 (stereo not given) | 0
48 | O=C(COc1ccc(F)cc1)N1CCCC1 | 0
49 | CCNC(=O)c1c[nH]nn1 | 0
50 | OCC1CN(Cc2ccccc2)CCO1 (stereo not given) | 0
51 | CC(=O)NC(C)c1nnc2ccccn12 (stereo not given) | 0
52 | CN1CCN(C(=O)CO)CC1 | 0
53 | CCOC(=O)CN1CCS(=O)(=O)CC1 | 0
54 | NC(=O)c1ccc(NC(=O)c2cnccn2)cc1 | 0
55 | Cl.NC1CCCN(C(=O)CCC(F)(F)F)C1 (stereo not given) | 0
56 | O=c1[nH]cc(N2CCCCC2)c(=O)[nH]1 | 0
57 | Cn1nc(C(N)=O)c2ccccc21 | 0
58 | Cc1ccsc1CNC(C)(C)CO | 0
59 | CN(CC(=O)O)C(=O)c1ccc(F)cc1 | 0
60 | CNC(=O)c1nc2ccccc2c(=O)[nH]1 | 0

Row | Compound | NMR binding call
61 | CC(=O)NCCc1ccc(S(N)(=O)=O)cc1 | 0
62 | Cc1cccc(Nc2ncnc3c2cnn3C)c1 | 0
63 | COCC(=O)Nc1nc(-c2ccccc2)cs1 | 0
64 | Cc1ccc(OCC(=O)Nc2cc(C)on2)cc1 | 0
65 | CC(=O)N1CCC(NCCc2ccccc2)CC1 | 0
66 | Cc1ccccc1CNc1nnnn1C | 0
67 | CC(=O)N1CCC(c2c[nH]c3ccccc23)CC1 | 0
68 | Cc1sc2ncnc(N(C)C)c2c1C | 0
69 | CS(=O)(=O)NCCc1ccc(F)cc1 | 0
70 | CC(C)n1cc(C(=O)O)nn1 | 0
71 | CS(=O)(=O)Nc1ccc(CN)cc1.Cl | 0
72 | COc1ccccc1N1CCN(CC#N)CC1 | 0
73 | CN(C)Cc1nc(C2(N)CCCC2)no1 | 0
74 | Nc1cccc(OCc2ccccc2)c1 | 0
75 | COc1ccc(NCc2ccccc2O)cc1 | 0
76 | Oc1ccccc1CN1CCc2ccccc2C1 | 0
77 | CS(=O)(=O)NC1(C(=O)O)CCCCC1 | 0
78 | Oc1ncc(NCCc2ccccc2)c(O)n1 | 0
79 | c1csc(CNCc2ccncc2)c1 | 0
80 | CCc1nnc(NC(=O)C(F)(F)F)s1 | 0

Source: the supplement of paper PMC8426693
